According to publication PMC4838890, “Dynamic and flexible H3K9me3 bridging via HP1β dimerization establishes a plastic state of condensed chromatin” (Nature Communications, 2016):

Columns and labels:
[1] = test system: H3KC9me3 peptide; experiment: ITC, H3KC9me3 peptide; type: binding; settings: pH 7.5, 25°C
Description: (§1) ITC measurements were performed on a iTC200 calorimeter (Microcal, Malvern, UK) at 25°C in binding buffer (10 mM triethanolamine (pH 7.5), 20 or 150 mM NaCl, 0.1 mM EDTA). Reaction heats were recorded by sequences of 37 injections of 1.8 mM hHP1β, spaced at 120 s intervals, into 250 μl of 60 μM H3 peptides, nucleosomes or oligonucleosomal arrays under constant stirring at 1,000 r.p.m. (injection #1–10: 0.5 μl each; injection #11–32: 1 μl each; injection #33–37: 2 μl each). Heats of dilution, obtained by the titration of hHP1β into buffer, were substracted from raw data before analysis. Raw data were integrated, normalized and the apparent heat change (Δq) of the reaction was plotted against the molecular ratio using the Origin software. For the determination of apparent enthalpy changes (ΔHapp), the molar association constant (KA), and the stoichiometry (n) of the interaction, non-linear least-square fitting of the Δq values was performed by the Origin software using a binding model of one set of identical binding sites.
Supplementary Table 1: Summary of conditions used in the different experiments of this study. experiment result modification template Temp. [NaCl] [MgCl2] […]
chromatin Fig. 1e,f; Fig. S1f-h; H3K9me3 oligo- 4 150 5 coprecipitation Fig. S2b nucleosomes
Fig. S7d,f; Fig.S9c nucleosomes […]
chromatin sedimentation Fig. 4a; H3K9me3 oligo- 4 150 0 […]

[2] = test system: H3KC9me3 mononucleosome; experiment: ITC, H3KC9me3 mononucleosome; type: binding, Xenopus laevis; settings: pH 7.5, 25°C
Description: Mononucleosomes were reconstituted on a 187 bp DNA fragment containing the ‘601' sequence flanked on each site by a linker of 20 bp[55]. Oligonucleosomes were reconstituted on a 12 × 200 bp × 601 template. Plasmids carrying the respective inserts were purified using a Giga kit (Qiagen, Hilden, Germany). Templates for reconstitution were released from plasmids by restriction digest with BsoBI for mononucleosomes and a mix of DdeI, BfuCI, HaeII and EcoRI for oligonucleosomes. To separate vector backbone from DNA used for chromatin assembly stepwise precipitation with polyethylene glycol (PEG) 6000/0.5 M NaCl was carried out (final PEG concentration 2–9% and 20% (w/v)). DNA pellets were washed with 70% (v/v) ethanol and dissolved in water. Double stranded, short, biotinylated DNA linkers were ligated to the DNA template before chromatin reconstitution.
as §1
Supplementary Table 1: Summary of conditions used in the different experiments of this study.
experiment result modification template Temp. [NaCl] [MgCl2] […]

Substance	N (stoichiometry of interaction) ([1]; 20 mM NaCl)	N (stoichiometry of interaction) ([1]; 150 mM NaCl)	N (stoichiometry of interaction) ([2]; 20 mM NaCl)	N (stoichiometry of interaction) ([2]; 150 mM NaCl)
hHP1β WT: recombinant human heterochromatin protein 1β (GenBank NM_001127228), 185 aa	1.0±0.0	1.0±0.1	2.1±0.3	1.4±0.3
hHP1β I161A: CSD point mutant of hHP1β incapable of dimerization			1.1±0.4	1.2±0.3
